From patent US7582646B2, “Pyrimidine derivatives for treatment of hyperproliferative disorders” (Bayer Pharmaceuticals Corporation, priority 2003, dated 2009)
Some of these results come from one statement about several compounds together. For at least one compound, name, drawing or mass did not settle the structure.

Test system: HCT116 cells
Assay: HCT116 cytotoxic activity assay (Alamar Blue, 72 h)
Conditions: read-out: IC50 in the HCT116 cytotoxic activity assay, group with IC50 less than or equal to 500 nM

Compound | IC50 [nM]
Nc1nc(Nc2ccc(Oc3ccnc(Cl)c3)cc2)cc(-c2ccc(OS(N)(=O)=O)cc2)n1 [Example 332, 4-[2-amino-6-({4-[(2-chloropyridin-4-yl)oxy]phenyl}amino)pyrimidin-4-yl] phenyl sulfamate] | ≤ 500
Cc1cc(Oc2ccc(Nc3cc(-c4ccccc4C)nc(N)n3)cc2)ccn1 [Example 311, 6-(2-methylphenyl)N4*-{4-[(2-methylpyridin-4-yl)oxy]phenyl} pyrimidine-2,4-diamine] | ≤ 500
